PMC6261646
These are yes or no findings as the source states them, for the method shown.

Amino acid sequences for entries named in this document (tags omitted). A change or cut given only in a name is not applied to a line headed by its entry. Chains listed by the source or under a name are the forms on record and can include a tag or linker.
human integrin β2 TMD construct (V667 to Y713), C673S (P05107, form named): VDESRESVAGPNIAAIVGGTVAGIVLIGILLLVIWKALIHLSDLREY

Target: human integrin β2 TMD construct (V667 to Y713), C673S (human) (UniProt P05107)
Assay: NMR titration; different concentrations of unlabeled β2 peptide titrated into 0.6 mM 15N-labeled β2 TMD peptide in mixture lipid bicelles (24 mM POPG, 48 mM POPC), 240 mM DHPC, 20 mM Bis-Tris pH 6.7; both purified

- binding: no binding
Substance: human integrin β2 TMD construct (V667 to Y713), C673S (from UniProt P05107 689-735) (domain or fragment)
